# Reference: the supplement of paper PMC8728848
# The other results are listed elsewhere or left out.
# Experiments:
# Experiment in all cases: glycan array binding signal (z-score within array); higher = stronger binding
# Settings in all cases: glycan notation: IUPAC condensed, linker removed
# Gal(b1-4)Glc6S = target: Gal(b1-4)Glc6S
# Summary of the method: (§1)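 Columns mapping to the same glycan were averaged after glycan names were converted to IUPAC-condensed notation. The data come from 3228 arrays in the Consortium for Functional Glycomics database, limited to those with an available protein sequence. Binding is reported as a within-array Z-score averaged across arrays of one protein sequence and across linkers.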
# Gal(b1-4)GlcNAc = target: Gal(b1-4)GlcNAc
# Summary of the method: as §1
# [1] = target: Gal(b1-4)GlcNAc(a1-6)Gal(b1-4)GlcNAc
# Summary of the method: as §1
# Gal(b1-4)GlcNAc(b1-2)Man = target: Gal(b1-4)GlcNAc(b1-2)Man
# Summary of the method: as §1
# [2] = target: Gal(b1-4)GlcNAc(b1-2)Man(a1-3)Man(b1-4)GlcNAc(b1-4)GlcNAc
# Summary of the method: as §1
# [3] = target: Gal(b1-4)GlcNAc(b1-2)Man(a1-3)[Gal(b1-4)GlcNAc(b1-2)Man(a1-6)]Man(b1-4)GlcNAc(b1-4)GlcNAc
# Summary of the method: as §1
# [4] = target: Gal(b1-4)GlcNAc(b1-2)Man(a1-3)[Gal(b1-4)GlcNAc(b1-2)Man(a1-6)]Man(b1-4)GlcNAc(b1-4)[Fuc(a1-6)]GlcNAc
# Summary of the method: as §1
# [5] = target: Gal(b1-4)GlcNAc(b1-2)Man(a1-3)[Gal(b1-4)GlcNAc(b1-2)Man(a1-6)][Gal(b1-4)GlcNAc(b1-4)]Man(b1-4)GlcNAc(b1-4)[Fuc(a1-6)]GlcNAc
# Summary of the method: as §1
# [6] = target: Gal(b1-4)GlcNAc(b1-2)Man(a1-3)[Gal(b1-4)GlcNAc(b1-2)Man(a1-6)][GlcNAc(b1-4)]Man(b1-4)GlcNAc(b1-4)[Fuc(a1-6)]GlcNAc
# Summary of the method: as §1
# [7] = target: Gal(b1-4)GlcNAc(b1-2)Man(a1-3)[GlcNAc(b1-2)Man(a1-6)]Man(b1-4)GlcNAc(b1-4)GlcNAc
# Summary of the method: as §1
# [8] = target: Gal(b1-4)GlcNAc(b1-2)Man(a1-3)[GlcNAc(b1-4)][Gal(b1-4)GlcNAc(b1-2)Man(a1-6)]Man(b1-4)GlcNAc(b1-4)GlcNAc
# Summary of the method: as §1
# [9] = target: Gal(b1-4)GlcNAc(b1-2)Man(a1-3)[Man(a1-6)]Man(b1-4)GlcNAc(b1-4)GlcNAc
# Summary of the method: as §1
# [10] = target: Gal(b1-4)GlcNAc(b1-2)Man(a1-6)Man(b1-4)GlcNAc(b1-4)GlcNAc
# Summary of the method: as §1
# [11] = target: Gal(b1-4)GlcNAc(b1-2)Man(a1-6)[GlcNAc(b1-2)Man(a1-3)]Man(b1-4)GlcNAc(b1-4)GlcNAc
# Summary of the method: as §1
# [12] = target: Gal(b1-4)GlcNAc(b1-2)Man(a1-6)[Man(a1-3)]Man(b1-4)GlcNAc(b1-4)GlcNAc
# Summary of the method: as §1
# [13] = target: Gal(b1-4)GlcNAc(b1-2)[Gal(b1-4)GlcNAc(b1-4)]Man(a1-3)[Gal(b1-4)GlcNAc(b1-2)Man(a1-6)]Man(b1-4)GlcNAc(b1-4)GlcNAc
# Summary of the method: as §1
# [14] = target: Gal(b1-4)GlcNAc(b1-2)[Gal(b1-4)GlcNAc(b1-4)]Man(a1-3)[Gal(b1-4)GlcNAc(b1-2)[Gal(b1-4)GlcNAc(b1-6)]Man(a1-6)]Man(b1-4)GlcNAc(b1-4)GlcNAc
# Summary of the method: as §1
# [15] = target: Gal(b1-4)GlcNAc(b1-2)[Gal(b1-4)GlcNAc(b1-4)]Man(a1-3)[GlcNAc(b1-4)][Gal(b1-4)GlcNAc(b1-2)Man(a1-6)]Man(b1-4)GlcNAc(b1-4)GlcNAc
# Summary of the method: as §1
# [16] = target: Gal(b1-4)GlcNAc(b1-2)[Gal(b1-4)GlcNAc(b1-4)]Man(a1-3)[GlcNAc(b1-4)][Gal(b1-4)GlcNAc(b1-2)[Gal(b1-4)GlcNAc(b1-6)]Man(a1-6)]Man(b1-4)GlcNAc(b1-4)GlcNAc
# Summary of the method: as §1
# [17] = target: Gal(b1-4)GlcNAc(b1-2)[Gal(b1-4)GlcNAc(b1-6)]Man(a1-6)[Gal(b1-4)GlcNAc(b1-2)Man(a1-3)]Man(b1-4)GlcNAc(b1-4)GlcNAc
# Summary of the method: as §1
# [18] = target: Gal(b1-4)GlcNAc(b1-2)[Gal(b1-4)GlcNAc(b1-6)]Man(a1-6)[Gal(b1-4)GlcNAc(b1-2)Man(a1-3)]Man(b1-4)GlcNAc(b1-4)[Fuc(a1-6)]GlcNAc
# Summary of the method: as §1
# [19] = target: Gal(b1-4)GlcNAc(b1-2)[Gal(b1-4)GlcNAc(b1-6)]Man(a1-6)[GlcNAc(b1-4)][Gal(b1-4)GlcNAc(b1-2)Man(a1-3)]Man(b1-4)GlcNAc(b1-4)GlcNAc
# Summary of the method: as §1
binder,measurement,setting,value
Pbx1CASH domain (Cryptococcus neoformans) (protein) MDETKPLWGNPRADGISLACKDSIVERNVVYDATDGAIVLFGSAGSTVKNNHVYARTRVILGGINLVDYEPWDGDYTNVKVHHNHLYALGRYFKVGIVIGPASWSDDTESVVHSASVTDNEFSGGYWGYGIVVASAKNFEVLRNKVIWDGEQGVARFSGVPGS,glycan array binding signal (z-score),Gal(b1-4)Glc6S,-0.632
same,glycan array binding signal (z-score),Gal(b1-4)GlcNAc,-0.813
same,glycan array binding signal (z-score),[1],-0.645
same,glycan array binding signal (z-score),Gal(b1-4)GlcNAc(b1-2)Man,0.337
same,glycan array binding signal (z-score),[2],-0.434
same,glycan array binding signal (z-score),[3],0.009
same,glycan array binding signal (z-score),[4],-0.339
same,glycan array binding signal (z-score),[5],0.254
same,glycan array binding signal (z-score),[6],0.423
same,glycan array binding signal (z-score),[7],-0.194
same,glycan array binding signal (z-score),[8],0.433
same,glycan array binding signal (z-score),[9],-0.015
same,glycan array binding signal (z-score),[10],-0.018
same,glycan array binding signal (z-score),[11],-0.228
same,glycan array binding signal (z-score),[12],0.527
same,glycan array binding signal (z-score),[13],-0.846
same,glycan array binding signal (z-score),[14],-0.024
same,glycan array binding signal (z-score),[15],0.488
same,glycan array binding signal (z-score),[16],0.939
same,glycan array binding signal (z-score),[17],0.543
same,glycan array binding signal (z-score),[18],-0.218
same,glycan array binding signal (z-score),[19],0.234

# Shown with tabs: entries from further up.
binder	measurement	setting	value
Pbx1CASH domain (Cryptococcus neoformans) (protein) MDETKPLWGNPRADGISLACKDSIVERNVVYDATDGAIVLFGSAGSTVKNNHVYARTRVILGGINLVDYEPWDGDYTNVKVHHNHLYALGRYFKVGIVIGPASWSDDTESVVHSASVTDNEFSGGYWGYGIVVASAKNFEVLRNKVIWDGEQGVARFSGVPGS	glycan array binding signal (z-score)	[7]	-0.194
same	glycan array binding signal (z-score)	[8]	0.433
